Measured values as given in PubChem BioAssay AID1347076 (National Center for Advancing Translational Sciences (NCATS), 2019).
Among all 400,000 compounds or so, about 13,000 (3.2%) were called active. Inconclusive means that the source gave no clear call. Such entries were picked first, then a sample of the others. Calls follow the shape of the dose curve; as a rule, active = well fitted cell-killing curve with a large enough effect; inconclusive = small, poorly fitted or top-dose-only effect, or effect the other way; inactive = flat fitted curve, though single readings scatter. Potencies of inconclusive entries are doubtful fits and often do not repeat.

assay: qHTS assay for MDR1-selective chemotherapeutics: Primary screen using the drug-selected MDR subline cells KB-V1; conditions: KB-V1 MDR cells viability, CellTiter-Glo, 72 h; activity change, negative = cytotoxicity: at 46.1 µM (top of the series); also: nearly all actives have a fitted effect of over 60% in size
Summary of the method: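 qHTS viability screen in drug-selected KB-V1 MDR cells: 72 h compound treatment at 37 degrees C, ATP luminescence end point.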
% is scaled to controls: 0 for no effect and ±100 for the full control effect; potency is read from the fitted curve at half-maximal effect.

Structure (SMILES)	Potency	activity change, negative = cytotoxicity
CC(=O)N1CCN(C(=S)Nc2ccc(Oc3ccccc3)cc2)CC1	inconclusive: 29.1 µM [rising, single point]	
Cc1ccc(SCCNC(=S)Nc2ccc(C)c(C)c2)cc1	inconclusive: 18.4 µM [cytotoxic, single point]	
O=C(Nc1ccc(F)c(F)c1)C1CCCN1S(=O)(=O)c1cccc2nsnc12 (stereo not drawn)		inactive: -21%
O=C(CSc1n[nH]c(-c2cccs2)n1)NCc1ccc2c(c1)OCO2		inactive: 4.31%
CCn1c(CN2CCCCC2)nc2cc(NC(=O)c3ccc([N+](=O)[O-])cc3)ccc21	active: 6.51 µM	
CCOc1ccccc1NC(=O)COc1ccc(S(=O)(=O)NC2CCCCC2)cc1		inactive: -29.3%
CCOCCCN(C(=O)Cn1nnc(-c2ccc(C)o2)n1)C(C(=O)NC1CCCC1)c1ccc(C)o1 (stereo not drawn)	inconclusive: 3.66 µM [cytotoxic, full curve]	
COc1cccc(C(=O)c2ccccc2NC(C)=O)c1	inconclusive: 32.6 µM [cytotoxic, single point]	
Cc1ccc(C(=O)N/C(=C\c2ccc(C(C)C)cc2)C(=O)NCCCN2CCOCC2)cc1		inactive: -26.2%
C[C@H](CO)N1C[C@H](C)[C@@H](CN(C)C(=O)Nc2ccc(C(F)(F)F)cc2)Oc2ccc(NC(=O)CCC(F)(F)F)cc2C1=O	inconclusive: 18.4 µM [rising, partial curve, poor fit]	
Nc1nc2ccccc2n1/N=C/c1ccc(-c2ccccc2)o1	active: 20.6 µM	
N#CC(c1ccccc1)N(CCCCl)C(=O)c1ccccc1 (stereo not drawn)		inactive: -11%
O=C(c1ccccc1)N1CCN(c2ccc([N+](=O)[O-])c(NCc3cccnc3)c2)CC1	active: 2.59 µM	
Cc1ccc(S(=O)(=O)N2CCN(C(=O)c3cc(S(=O)(=O)N(C)C)ccc3N3CCCC3)CC2)c(C)c1	inconclusive: 14.6 µM [cytotoxic, partial curve, poor fit]	
O=C(Nc1ccc(N2CCN(C(=O)c3ccccc3)CC2)c(Cl)c1)c1ccco1	inconclusive: 29.1 µM [cytotoxic, single point]	
COc1ccc(O)c(/C=N/Nc2nc3ccccc3[nH]2)c1		inactive: -9.78%
Cc1ccccc1OCCC(=O)N(CC(C)C)c1c(N)n(Cc2ccccc2)c(=O)[nH]c1=O	inconclusive: 23.1 µM [rising, single point]	
CCN1CCN(c2ccc(S(=O)(=O)N3CCOCC3)cc2NC(=O)C(C)Oc2ccc(Cl)cc2)CC1 (stereo not drawn)		inactive: -7.24%
N#CC1(NC(=O)CSc2nc3ccc([N+](=O)[O-])cc3s2)CCCCC1	inconclusive: 18.4 µM [cytotoxic, partial curve]	
CC1=CC2=NC(=O)/C(=C/c3cccn3Cc3ccccc3)C(=N)N2O1	inconclusive: 16.4 µM [cytotoxic, partial curve, poor fit]	
O=C(c1cccc(Cl)c1)C1CCCN(C(=O)c2ccoc2)C1 (stereo not drawn)	inconclusive: 16.4 µM [cytotoxic, single point]	
CCOC(=O)[C@H]1[C@H]2COc3ccc(OC)cc3[C@H]2N2C(=O)CNC(=O)[C@@]12C		inactive: -1.52%
CC(C)C[C@@H](CN1CCCC1CN1C(=S)NC[C@@H]1Cc1ccccc1)N1C[C@H](Cc2ccccc2)N(CC2CCCCC2)C1=S (stereo partly drawn)	inconclusive: 16.4 µM [cytotoxic, partial curve, poor fit]	

Structure (SMILES)	Potency	activity change, negative = cytotoxicity
COc1ccc2c(c1)CC/C(=C\c1ccc(OC)c(Cn3nc(C)cc3C)c1)C2=O	inconclusive: 18.4 µM [cytotoxic, single point]	
CC(C)(C)NC(=O)C(c1cccs1)N(Cc1ccco1)C(=O)c1csnn1 (stereo not drawn)	inconclusive: 3.66 µM [cytotoxic, full curve]	
CCOC(=O)C1=NN(c2ccccc2)C2=NC(C)=C(C(=O)OC)C(c3ccc(C)cc3)N12 (stereo not drawn)	active: 14.6 µM	
Cc1ccc(C(O)c2ncc(-c3cccc4ccccc34)[nH]2)c(C)c1 (stereo not drawn)		inactive: 3.9%
CC(NC(=O)c1ccc(F)cc1)C1CC2CCC1C2 (stereo not drawn)		inactive: -20.4%
Cc1ccc(C)c(NC(=O)CCCN2C(=O)C(c3ccccc3)Oc3cccnc32)c1 (stereo not drawn)		inactive: -14.3%
Cc1ccc(Nc2nnc(SCC(=O)Nc3cccc(S(=O)(=O)NC4=NCCCCC4)c3)s2)c(C)c1	inconclusive: 25.9 µM [cytotoxic, single point]	
CC(=O)Nc1ccc(S(=O)(=O)N(CC(=O)Nc2cc(C)on2)Cc2ccc(F)cc2)cc1	inconclusive: 23.1 µM [cytotoxic, partial curve, poor fit]	
N/C(=N\c1nc(CSc2ccc(Cl)cc2)cc(=O)[nH]1)Nc1cccc2ccccc12	inconclusive: 8.2 µM [cytotoxic, partial curve]	
COc1ccc(Nc2nc(N)nc(CSC(=S)N3CCN(c4ccccc4)CC3)n2)cc1		inactive: 4.48%
CSCC[C@H](NC(=O)OC(C)(C)C)C(=O)N1CCC(C(=O)N[C@@H](C)C(=O)NCc2ccc(F)cc2)CC1	inconclusive: 6.51 µM [rising, partial curve]	
COc1ccc(CNC(=S)N/N=C(/C)c2ccccc2)cc1		inactive: -7.68%
CC1CCCCN1C(=O)COC(=O)c1cc([N+](=O)[O-])ccc1N1CCOCC1 (stereo not drawn)	inconclusive: 18.4 µM [cytotoxic, single point]	
CCCCN1CC(=O)N2[C@H](c3ccc(OC)cc3)[C@@H]3C(=O)N(CC)C(=O)[C@@H]3[C@]2(C)C1=O		inactive: 9.4%
CC(=O)c1ccc(N2CCN(C(=O)c3ccccc3SCC(=O)NCc3ccco3)CC2)c(F)c1	active: 20.6 µM	
CN(Cc1cnc2nc(N)nc(N)c2n1)c1ccc(C(=O)NC(CCC(=O)O)C(=O)O)cc1 (stereo not drawn)	inconclusive: 0.231 µM [cytotoxic, full curve, poor fit]	
CCOC(=O)C1CCN(c2c(-c3ccccc3)c3cc(Cl)ccc3[nH]c2=O)CC1		inactive: -10.5%
COc1cc(CCNC(=O)c2cnn3ccccc23)cc(OC)c1OC	inconclusive: 11.6 µM [cytotoxic, partial curve, poor fit]	
CC(C)(C)C(=O)Cn1ncc(Cl)c(Cl)c1=O	inconclusive: 14.6 µM [cytotoxic, partial curve, poor fit]	
O=C(Cc1cccs1)Nc1nc(-c2ccc(F)c(F)c2)cs1	inconclusive: 10.3 µM [cytotoxic, partial curve]	
O=C1CCn2nc(-c3ccc(Cl)cc3)cc2N1	inconclusive: 0.58 µM [cytotoxic, full curve, poor fit]	
CCc1ccc(NC(=O)CSc2nc(=O)n(CCCN(C)C)c3c2CCC3)cc1	inconclusive: 8.2 µM [rising, partial curve, poor fit]	
CCOC(=O)c1cc(-c2ccc(F)cc2)n(CCC(=O)NC2CCCCC2)c1C	inconclusive: 13 µM [cytotoxic, partial curve, poor fit]	

2 compounds picked at random from the list so far, as already listed:
Structure (SMILES)	Potency	activity change, negative = cytotoxicity
CCn1c(CN2CCCCC2)nc2cc(NC(=O)c3ccc([N+](=O)[O-])cc3)ccc21	active: 6.51 µM	
Nc1nc2ccccc2n1/N=C/c1ccc(-c2ccccc2)o1	active: 20.6 µM	

More structures follow.

Structure (SMILES)	Potency	activity change, negative = cytotoxicity
CCOC(=O)C1C2C=CC3(CN(Cc4ccco4)C(=O)C13)O2 (stereo not drawn)	inconclusive: 1.84 µM [rising, full curve, poor fit]	
CN(C)c1ccc(/C(=N\O)c2ccccc2)cc1		inactive: 3.62%
CN(C)S(=O)(=O)n1cc(/C=C(\NC(=O)c2ccccc2)C(=O)N2CCCC2)c2ccccc21	inconclusive: 29.1 µM [cytotoxic, single point]	
CC(C)[C@H]1COCCS(=O)(=O)N1Cc1cccc(Cl)c1	inconclusive: 23.1 µM [cytotoxic, partial curve, poor fit]	
CN1CCN(Cc2nc(Cc3cccc(F)c3)no2)CC1c1ccccc1 (stereo not drawn)	inconclusive: 10.3 µM [cytotoxic, partial curve, poor fit]	
CCc1ccccc1NC(=O)C1(S(=O)(=O)c2ccc(C)cc2)CC1	inconclusive: 29.1 µM [cytotoxic, single point]	
CCOC(=O)c1cc2c(=O)n3ccccc3nc2n(C)c1=NC(=O)c1cc2ccccc2o1	inconclusive: 29.1 µM [rising, single point]	
CC(=O)c1c(O)c2ccccc2n(C2CCCCC2)c1=O	inconclusive: 5.8 µM [cytotoxic, partial curve, poor fit]	
CCN(CC)S(=O)(=O)c1ccc(OC)c(NC(=S)Nc2cccc(C)c2C)c1	inconclusive: 0.731 µM [cytotoxic, full curve, poor fit]	
CCOC(=O)Cc1nn(C(C)C)c(=O)c2ccccc12	inconclusive: 16.4 µM [cytotoxic, partial curve, poor fit]	
COc1ccccc1N(O)C1CC(=O)N(c2ccc(Br)cc2)C1=O (stereo not drawn)		inactive: 5.21%
c1ccc2c(c1)nc(N1CCOCC1)c1ccccc12		inactive: -5.57%
O=C(c1ccccc1F)N1CCN(c2ccccn2)CC1		inconclusive: -3.68%
CC(C)Cn1cnc2c(SCc3ccccn3)nc(N)nc21		inactive: -6.58%
COc1ccc(/C=C/C(=O)C(C(N)=O)=C2SCCS2)cc1	inconclusive: 18.4 µM [cytotoxic, single point]	
O=c1c2nncn2c2cccnc2n1CCNc1ncc(C(F)(F)F)cc1Cl		inactive: -0.294%
Fc1ccc2c(c1)C(c1cccnc1)=NNC(c1cccs1)=N2	active: 11.6 µM	
O=S(=O)(N/N=C1/CC(c2ccccc2)Oc2ccccc21)c1ccc(Br)cc1 (stereo not drawn)	active: 23.1 µM	
CN(C)C(=O)c1c(NC(=O)c2ccco2)sc2c1CCCCC2		inactive: 3.23%
O=C(NC1CCCC1)c1cccc(Cn2cc([N+](=O)[O-])cn2)c1		inactive: 0%
CC(O)(c1cccc(F)c1)c1nc(-c2ccc(Cl)cc2)cs1 (stereo not drawn)		inactive: 6.38%
CCOc1ccc(C(=O)c2cn(CC(=O)Nc3cc(OC)ccc3OC)c3cc(OC)c(OC)cc3c2=O)cc1	inconclusive: 20.6 µM [rising, single point]	

A draw from above in order of heavy-atom count, ascending:
Structure (SMILES)	Potency	activity change, negative = cytotoxicity
CN(C)c1ccc(/C(=N\O)c2ccccc2)cc1		inactive: 3.62%
c1ccc2c(c1)nc(N1CCOCC1)c1ccccc12		inactive: -5.57%
O=C(c1ccccc1F)N1CCN(c2ccccn2)CC1		inconclusive: -3.68%
CCOC(=O)C1C2C=CC3(CN(Cc4ccco4)C(=O)C13)O2 (stereo not drawn)	inconclusive: 1.84 µM [rising, full curve, poor fit]	
O=C(NC1CCCC1)c1cccc(Cn2cc([N+](=O)[O-])cn2)c1		inactive: 0%
CCc1ccccc1NC(=O)C1(S(=O)(=O)c2ccc(C)cc2)CC1	inconclusive: 29.1 µM [cytotoxic, single point]	
CN1CCN(Cc2nc(Cc3cccc(F)c3)no2)CC1c1ccccc1 (stereo not drawn)	inconclusive: 10.3 µM [cytotoxic, partial curve, poor fit]	
CCN(CC)S(=O)(=O)c1ccc(OC)c(NC(=S)Nc2cccc(C)c2C)c1	inconclusive: 0.731 µM [cytotoxic, full curve, poor fit]	
CN(C)S(=O)(=O)n1cc(/C=C(\NC(=O)c2ccccc2)C(=O)N2CCCC2)c2ccccc21	inconclusive: 29.1 µM [cytotoxic, single point]	
CCOc1ccc(C(=O)c2cn(CC(=O)Nc3cc(OC)ccc3OC)c3cc(OC)c(OC)cc3c2=O)cc1	inconclusive: 20.6 µM [rising, single point]	
